According to patent publication US20150274840A1 (GENEFRONTIER, published 2015):
Results are given in words; binding and its absence hold for the method and conditions named. Some results given as binding are weak or reduced against the parent protein; the word gives no strength. For part of these data: Tags and fused reporters may be left off the sequences shown.

Experiments:
[1] = biological target: T1, fusion protein of region 511-530 of human ADAM28s added to the C-terminal of MBP (human); assay: Western blotting of MBP fusion proteins
T1 sequence: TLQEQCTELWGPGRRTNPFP

[2] = biological target: T2, fusion protein of region 517-526 of human ADAM28s added to the C-terminal of MBP (human); assay: Western blotting of MBP fusion proteins
T2 sequence: TELWGPGRRT

[3] = biological target: T3, peptide #65 of the human ADAM28s peptide array (…) (human); assay: peptide array, HRP-labeled antibody
T3 sequence (peptide): LSNCLFNAPLPT

[4] = biological target: T4, peptide #66 of the human ADAM28s peptide array (…) (human); assay: peptide array, HRP-labeled antibody
T4 sequence (peptide): CLFNAPLPTDII

[5] = biological target: T5, fusion protein comprising the amino acid sequence shown in SEQ ID NO: 23 added to the C-terminal of MBP (human); assay: dot blot of an E. coli lysate expressing the MBP fusion
T5 sequence: LFNAPLPT

[6] = biological target: T6, human ADAM28 recombinant protein (rhADAM28), full length (human) (UniProt Q9UKQ2); assay: selected by ELISA using rhADAM28; immunoblotting of recombinant human ADAM28
T6 sequence (looked up): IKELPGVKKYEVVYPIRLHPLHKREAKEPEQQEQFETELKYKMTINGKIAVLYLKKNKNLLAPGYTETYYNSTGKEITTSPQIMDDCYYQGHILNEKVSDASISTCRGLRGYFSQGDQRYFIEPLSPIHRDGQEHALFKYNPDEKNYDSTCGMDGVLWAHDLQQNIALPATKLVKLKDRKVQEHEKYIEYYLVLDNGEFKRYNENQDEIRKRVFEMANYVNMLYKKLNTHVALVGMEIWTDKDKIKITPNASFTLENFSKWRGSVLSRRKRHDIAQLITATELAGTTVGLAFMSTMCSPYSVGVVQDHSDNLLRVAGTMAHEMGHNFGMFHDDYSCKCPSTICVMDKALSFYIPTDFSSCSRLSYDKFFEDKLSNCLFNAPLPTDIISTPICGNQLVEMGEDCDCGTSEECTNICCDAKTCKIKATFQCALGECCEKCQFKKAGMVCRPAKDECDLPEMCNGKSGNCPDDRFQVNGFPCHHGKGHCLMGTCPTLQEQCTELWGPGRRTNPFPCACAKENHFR

Measured: binding

B1: anti-human ADAM28 human antibody 211-14 (antibody, V domains shown)
VH: QVQLQQSGPGLVKPSQTLSLTCAISGDSVSSNTAAWGWIRQSPGRGLEWLGVIYYRSKWYNDYAVSVKSRITINPDTSKNQFSLQLNSVTPEDTAVYYCARYKESIPEYGFDFWGQGTLVTVSS
VL: DIVMTQSPLSLPVTPGEPASISCRSSQSLLYSNGYIYLNWYLQKPGQSPQLLIYLGSNRASGVPDRFSGSGSGTDFTLKISRVEAEDVGVYYCFQYGGSPLTFGQGTKVEIKR
notes: Clone from the HuCAL GOLD phage library, first made as Fab, then converted to IgG (heavy chain constant region IgG1)
binds: [1] | [2]

B2: mouse anti-human ADAM28 monoclonal antibody 297-2F3 (antibody, V domains shown)
VH: EVKLEESGGGLVQPGGSMKLSCAASGFTFSDAWMDWVRQSPEKGLEWVAEIRSKANNHAIYYAESVKGRFTISRDDSKSSVYLQMNNLRAEDTGIYYCTGFAYWGQGTLVTVSA
VL: DVVMTQTPLSLPVSLGDKASISCRSSQSLVLSNGNTYLNWYLQKPGQSPKLLIYKISARFSGVPDRFSGSGSGTDFTLRISRVEAEDLGVYFCSQTAHVPWTFGGGTKLEIKR
binds: [3] | [4] | [5] | [6]
